In patent publication US20060084792A1 (UNITED STATES OF AMERICA AS REPRESENTED BY THE …, published 2006) one finds binding data, which are given here for one substance.

Chains of the proteins cited; added tags and fusions are not shown. Lines headed by an entry give the natural chain unless they say otherwise; changes in a name come on top.
UniProt P28488: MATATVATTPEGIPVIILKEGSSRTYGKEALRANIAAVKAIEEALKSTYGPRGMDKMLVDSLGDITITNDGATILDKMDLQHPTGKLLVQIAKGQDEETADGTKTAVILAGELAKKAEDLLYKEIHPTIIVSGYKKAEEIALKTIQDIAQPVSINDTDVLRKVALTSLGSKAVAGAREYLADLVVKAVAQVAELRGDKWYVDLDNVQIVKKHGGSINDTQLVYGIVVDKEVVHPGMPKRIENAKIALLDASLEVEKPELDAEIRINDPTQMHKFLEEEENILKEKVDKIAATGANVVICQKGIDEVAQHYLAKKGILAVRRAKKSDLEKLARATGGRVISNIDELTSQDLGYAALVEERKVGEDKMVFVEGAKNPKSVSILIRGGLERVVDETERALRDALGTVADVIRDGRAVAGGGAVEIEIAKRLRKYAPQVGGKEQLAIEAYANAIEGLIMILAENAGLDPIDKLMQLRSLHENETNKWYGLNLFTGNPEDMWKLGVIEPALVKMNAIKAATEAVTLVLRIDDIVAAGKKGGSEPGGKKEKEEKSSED

These are yes or no findings as the source states them, for the method shown. Some binding calls cover weakened binding; strength is not graded here.

This experiment has as its target wild-type TF55 beta subunit from Sulfolobus shibatae (Sulfolobus shibatae) (UniProt P28488). Nature of the experiment: non-denaturing gradient PAGE (FIG. 18); wild-type comparator, self-assembly of subunits.

As for “wild-type TF55 beta subunit from Sulfolobus shibatae (from UniProt P28488 1-552)”, the binding result is recorded as “binds”.
